# Experimental data: patent US20250041248A1, “ALZ-801 FOR USE IN TREATING ALZHEIMER'S DISEASE” (Alzheon, Inc., priority 2021, published 2025)
# “Also recorded” adds a separate entry of the source. For at least one compound, name, drawing or mass did not settle the structure.
# How the values were obtained:
# [1] = test system: subject with major neurocognitive disorder of the Alzheimer type, APOE4 homozygous; test: Compassionate use study (Expanded Access IND), clinical response and tolerability; format: in vivo, human; details: n=1
# Experimental: A subject who received a diagnosis of major neurocognitive disorder of the Alzheimer type was treated with ALZ-801 as part of a compassionate use study. The subject was a APOE4 homozygous and had received standard cognitive enhancing medications and was enrolled in a trial of an amyloid immunotherapy agent, but without benefit, and had no treatment options.
# The subject was orally administered ALZ-801 at a dose of 265 mg BID for approximately 14 months (61 weeks, 2 days). […] For example, their motor skills improved as they made efforts to brush their teeth, get dressed, and bathe […]. They also were able to hold a phone to their […] and was walking and eating better. They were not able or willing to do the above prior to treatment with 265 mg BID ALZ-801. Further, their mood was noticeably more cheerful and content, and their verbal communication advanced. However, by the later end of the first 12-months of treatment, the improvement in the subject's symptoms plateaued and there was a decline in their cognitive status. They became apathetic, less verbal, and could no longer follow instructions.
# At 62 weeks, 6 days of treatment, the dosage of ALZ-801 was increased from 265 mg BID to 265 mg TID. Remarkably, their plateau and decline in cognition ended upon commencement of the 265 mg TID dosage regimen. They were more talkative, happier, and not only completed the tasks they accomplished while on 265 mg BID ALZ-801, but improved beyond that. They understand the context of conversation and behave in a more “normal” or “natural” manner. […] A similar plateau or decline in cognitive status as observed with an ALZ-801 dosage of 265 mg BID began to manifest approximately 12 months after the beginning of the 265 mg TID ALZ-801 dosing. The subject remained on 265 mg TID ALZ-801 for approximately three more months (15 months total) until their dosage was increased to 265 mg QID (four time a day) ALZ-801, which they have maintained for the past seven months. […]
# [2] = test system: subjects with early AD (MMSE>22); details: oral 265 mg BID; cited from earlier work
structure (smiles),measurement,setting,value
"CC(C)[C@H](N)C(=O)NCCCS(=O)(=O)O [ALZ-801, valyl-3-amino-1-propanesulfonic acid]",clinical response (symptoms),[1]; oral 265 mg BID,significant improvement and stabilization of their symptoms; also recorded: initially showed symptom improvement and stabilization
same,clinical response (cognitive status and quality of life measures),[1]; oral 265 mg QID after TID,"appear to have improved and continue stable; also recorded: increased alertness, greater responsiveness and a more positive disposition"
same,"clinical response (motivation, verbal output, activities of daily living, physical activity, mood, gait)",[1]; oral 265 mg TID after BID,"clear improvements in their motivation, verbal output, activities of daily living; also recorded: rapid and clear improvement"
same,benefit in cognition (ADAS-cog) compared to placebo,[2],~125%
same,benefit in function (CDR-SB) compared to placebo,[2],81%
